# In doi:10.1101/2023.12.13.571443:
# No constants are given. Whether binding was seen depends on the method and setting. In cells and extracts the contact can be indirect. Binding calls can cover weak binding; strength is not graded here. Tags and fused reporters may be left off the sequences shown.
# Biological target: T1, HopF2Pto-HA (Pseudomonas syringae pv. tomato DC3000) (UniProt Q88A90)
# T1 sequence: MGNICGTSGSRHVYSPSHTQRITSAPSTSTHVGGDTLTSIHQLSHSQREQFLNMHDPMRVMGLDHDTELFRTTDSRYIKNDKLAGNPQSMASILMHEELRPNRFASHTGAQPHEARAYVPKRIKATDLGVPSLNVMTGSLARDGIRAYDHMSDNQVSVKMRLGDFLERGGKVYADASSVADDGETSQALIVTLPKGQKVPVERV
# Test: co-IP
substance,measurement,value
"QIAN SHOU KINASE1 (QSK1), endogenous (from UniProt Q9M8T0) (receptor)",binding,binds
